# Test results published in paper doi:10.1101/2023.11.01.565136.
# These are yes or no findings as the source states them, for the method shown. Some results given as binding are weak or reduced against the parent protein; the word gives no strength.
# T1: Full-length human E6AP (E6-associated protein) (human), Q05086
# T1 chain: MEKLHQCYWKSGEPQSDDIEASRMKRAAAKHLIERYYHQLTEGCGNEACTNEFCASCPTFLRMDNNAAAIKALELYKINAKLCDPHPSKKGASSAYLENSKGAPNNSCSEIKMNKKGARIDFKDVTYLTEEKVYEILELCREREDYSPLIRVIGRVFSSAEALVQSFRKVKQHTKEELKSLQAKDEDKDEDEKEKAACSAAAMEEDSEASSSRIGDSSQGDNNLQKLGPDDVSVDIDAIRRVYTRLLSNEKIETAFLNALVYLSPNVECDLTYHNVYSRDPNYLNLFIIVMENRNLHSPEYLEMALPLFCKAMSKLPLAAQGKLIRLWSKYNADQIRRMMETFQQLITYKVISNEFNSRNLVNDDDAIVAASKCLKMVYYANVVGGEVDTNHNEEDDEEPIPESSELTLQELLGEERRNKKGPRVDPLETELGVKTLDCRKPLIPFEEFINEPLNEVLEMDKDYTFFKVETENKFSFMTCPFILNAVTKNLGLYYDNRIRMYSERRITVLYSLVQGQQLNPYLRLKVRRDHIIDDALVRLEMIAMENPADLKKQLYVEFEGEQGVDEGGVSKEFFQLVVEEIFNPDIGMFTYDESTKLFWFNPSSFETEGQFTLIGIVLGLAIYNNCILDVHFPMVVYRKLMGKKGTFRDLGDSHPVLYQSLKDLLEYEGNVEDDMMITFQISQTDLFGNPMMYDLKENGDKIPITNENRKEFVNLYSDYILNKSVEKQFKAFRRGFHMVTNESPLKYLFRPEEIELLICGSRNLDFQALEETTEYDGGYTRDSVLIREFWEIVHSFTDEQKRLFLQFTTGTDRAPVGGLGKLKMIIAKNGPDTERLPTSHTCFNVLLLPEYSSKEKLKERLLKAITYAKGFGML
# B1: Full-length human E6AP (E6-associated protein), Q05086 1-875 (enzyme)
# chain: MEKLHQCYWKSGEPQSDDIEASRMKRAAAKHLIERYYHQLTEGCGNEACTNEFCASCPTFLRMDNNAAAIKALELYKINAKLCDPHPSKKGASSAYLENSKGAPNNSCSEIKMNKKGARIDFKDVTYLTEEKVYEILELCREREDYSPLIRVIGRVFSSAEALVQSFRKVKQHTKEELKSLQAKDEDKDEDEKEKAACSAAAMEEDSEASSSRIGDSSQGDNNLQKLGPDDVSVDIDAIRRVYTRLLSNEKIETAFLNALVYLSPNVECDLTYHNVYSRDPNYLNLFIIVMENRNLHSPEYLEMALPLFCKAMSKLPLAAQGKLIRLWSKYNADQIRRMMETFQQLITYKVISNEFNSRNLVNDDDAIVAASKCLKMVYYANVVGGEVDTNHNEEDDEEPIPESSELTLQELLGEERRNKKGPRVDPLETELGVKTLDCRKPLIPFEEFINEPLNEVLEMDKDYTFFKVETENKFSFMTCPFILNAVTKNLGLYYDNRIRMYSERRITVLYSLVQGQQLNPYLRLKVRRDHIIDDALVRLEMIAMENPADLKKQLYVEFEGEQGVDEGGVSKEFFQLVVEEIFNPDIGMFTYDESTKLFWFNPSSFETEGQFTLIGIVLGLAIYNNCILDVHFPMVVYRKLMGKKGTFRDLGDSHPVLYQSLKDLLEYEGNVEDDMMITFQISQTDLFGNPMMYDLKENGDKIPITNENRKEFVNLYSDYILNKSVEKQFKAFRRGFHMVTNESPLKYLFRPEEIELLICGSRNLDFQALEETTEYDGGYTRDSVLIREFWEIVHSFTDEQKRLFLQFTTGTDRAPVGGLGKLKMIIAKNGPDTERLPTSHTCFNVLLLPEYSSKEKLKERLLKAITYAKGFGML
# Target: T1, Full-length human E6AP (E6-associated …)
# Assay: cryo-EM structure
# Settings: remark: other sources report otherwise
binder,measurement,value
B1,binding,binds
